Record: PubChem BioAssay AID1259424 (University of Nebraska Medical Center, 2018)

Aim: 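Seek colon cancer survival genes behaving like KSR1, using a six-gene signature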 (primary screen)
Cells: human HCT116 colon cancer cells
Reagents: siRNA pool against human genes, 50 nM
Measured: 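Log2 levels of six mRNAs (branched-DNA multiplex), adjusted by two reference genes and the non-targeting median, then scored against the average KSR1 knockdown pattern as Pearson r and euclidean distance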
Direction: mean correlation with KSR1 profile: higher = expression change more like KSR1 knockdown
Shown is a random part of about 14,000 reagents tested. 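Higher correlation or smaller distance means closer resemblance to KSR1 loss; control wells, including KSR1 knockdowns, recur on many plates.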 Not all columns of the deposit are shown. The record does not give: the time to read-out.

gene | mean correlation with KSR1 profile
HSD3B7 (GeneID 80270) | 0.282
UBE2E3 (GeneID 10477) | 0.301
UVRAG (GeneID 7405) | 0.408
EPB41L2 (GeneID 2037) | 0.0444
P2RY4 (GeneID 5030) | 0.563
ISY1 (GeneID 57461) | 0.149
ESS2 (GeneID 8220) | 0.38

3 of these entries, set out differently.
UVRAG (GeneID 7405)
- mean correlation with KSR1 profile: 0.408

EPB41L2 (GeneID 2037)
- mean correlation with KSR1 profile: 0.0444

P2RY4 (GeneID 5030)
- mean correlation with KSR1 profile: 0.563

The list goes on.
gene | mean correlation with KSR1 profile
PI3 (GeneID 5266) | -0.814
GLDC (GeneID 2731) | 0.015
NPY (GeneID 4852) | 0.178
BLTP2 (GeneID 9703) | 0.878
MON1B (GeneID 22879) | -0.18
ZRANB1 (GeneID 54764) | -0.119
KCNC3 (GeneID 3748) | -0.216
TRIM63 (GeneID 84676) | 0.674
MYEOV (GeneID 26579) | -0.00624
ZNF256 (GeneID 10172) | 0.144
MAGI3 (GeneID 260425) | -0.0155
GPR18 (GeneID 2841) | 0.624
CASC3 (GeneID 22794) | -0.495
